Reference: paper doi:10.1101/671156
Where two headings read alike, the source gives them in different places. Results are given in words; binding and its absence hold for the method and conditions named. In cells and extracts the contact can be indirect. Some entries that bind do so weakly or less than the wild type. For some of these results: Where a sequence is shown, tags or fusion partners need not be part of it.

T1: GST-YxxQ (307-545), recombinant CoAA YxxQ repeats (human) (UniProt Q96PK6)
T1 sequence: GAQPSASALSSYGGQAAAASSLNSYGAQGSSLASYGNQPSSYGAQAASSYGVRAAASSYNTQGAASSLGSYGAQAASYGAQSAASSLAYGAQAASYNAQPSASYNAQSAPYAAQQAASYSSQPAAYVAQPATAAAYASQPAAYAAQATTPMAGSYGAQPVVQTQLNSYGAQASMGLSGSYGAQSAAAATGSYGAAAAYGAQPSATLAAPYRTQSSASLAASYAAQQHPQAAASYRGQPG

T2: CoAA (coactivator activator, gene symbol RBM14) (human (endogenous in HeLa)) (UniProt Q96PK6)
T2 sequence: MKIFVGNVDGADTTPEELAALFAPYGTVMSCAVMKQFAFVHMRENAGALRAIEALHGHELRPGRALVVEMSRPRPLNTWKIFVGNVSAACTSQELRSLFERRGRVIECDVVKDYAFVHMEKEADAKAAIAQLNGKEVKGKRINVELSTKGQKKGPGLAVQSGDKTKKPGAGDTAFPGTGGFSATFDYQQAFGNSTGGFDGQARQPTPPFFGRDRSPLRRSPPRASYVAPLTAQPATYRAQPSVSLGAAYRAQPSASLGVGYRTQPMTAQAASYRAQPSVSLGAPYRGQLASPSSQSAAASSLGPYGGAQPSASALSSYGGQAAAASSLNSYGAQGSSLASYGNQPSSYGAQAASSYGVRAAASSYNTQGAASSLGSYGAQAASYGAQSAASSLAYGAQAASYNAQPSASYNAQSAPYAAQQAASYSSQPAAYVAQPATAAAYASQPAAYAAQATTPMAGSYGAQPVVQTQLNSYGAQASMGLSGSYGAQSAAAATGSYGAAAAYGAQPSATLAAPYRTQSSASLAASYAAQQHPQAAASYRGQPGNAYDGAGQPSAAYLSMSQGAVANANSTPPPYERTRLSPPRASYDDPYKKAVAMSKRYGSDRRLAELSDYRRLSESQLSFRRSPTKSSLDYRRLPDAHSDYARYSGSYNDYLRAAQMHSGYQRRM


Legend:
[1] = target: T1, GST-YxxQ (307-545), recombinant CoAA YxxQ repeats (human); experiment: pull-down
[2] = target: T2, CoAA (coactivator activator, gene symbol RBM14) (human (endogenous in HeLa)); experiment: co-IP
[3] = target: T2, CoAA (coactivator activator, gene symbol RBM14) (human (endogenous in HeLa)); experiment: co-IP; remark: listed apart in the source

binding [1]	binding [2]	binding [3]	Binder
binds			hnRNP M1 (alternatively spliced isoform of hnRNP M) (protein, UniProt P52272-2 1-691) MAAGVEAAAEVAATEIKMEEESGAPGVPSGNGAPGPKGEGERPAQNEKRKEKNIKRGGNRFEPYANPTKRYRAFITNIPFDVKWQSLKDLVKEKVGEVTYVELLMDAEGKSRGCAVVEFKMEESMKKAAEVLNKHSLSGRPLKVKEDPDGEHARRAMQKAGRLGSTVFVANLDYKVGWKKLKEVFSMAGVVVRADILEDKDGKSRGIGTVTFEQSIEAVQAISMFNGQLLFDRPMHVKMDERALPKGDFFPPERPQQLPHGLGGIGMGLGPGGQPIDANHLNKGIGMGNIGPAGMGMEGIGFGINKMGGMEGPFGGGMENMGRFGSGMNMGRINEILSNALKRGEIIAKQGGGGGGGSVPGIERMGPGIDRLGGAGMERMGAGLGHGMDRVGSEIERMGLVMDRMGSVERMGSGIERMGPLGLDHMASSIERMGQTMERIGSGVERMGAGMGFGLERMAAPIDRVGQTIERMGSGVERMGPAIERMGLSMERMVPAGMGAGLERMGPVMDRMATGLERMGANNLERMGLERMGANSLERMGLERMGANSLERMGPAMGPALGAGIERMGLAMGGGGGASFDRAIEMERGNFGGSFAGSFGGAGGHAPGVARKACQIFVRNLPFDFTWKMLKDKFNECGHVLYADIKMENGKSKGCGVVKFESPEVAERACRMMNGMKLSGREIDVRIDRNA
binds	binds	binds	heterogeneous ribonucleoprotein hnRNP M (protein, UniProt P52272 1-730) MAAGVEAAAEVAATEIKMEEESGAPGVPSGNGAPGPKGEGERPAQNEKRKEKNIKRGGNRFEPYANPTKRYRAFITNIPFDVKWQSLKDLVKEKVGEVTYVELLMDAEGKSRGCAVVEFKMEESMKKAAEVLNKHSLSGRPLKVKEDPDGEHARRAMQKVMATTGGMGMGPGGPGMITIPPSILNNPNIPNEIIHALQAGRLGSTVFVANLDYKVGWKKLKEVFSMAGVVVRADILEDKDGKSRGIGTVTFEQSIEAVQAISMFNGQLLFDRPMHVKMDERALPKGDFFPPERPQQLPHGLGGIGMGLGPGGQPIDANHLNKGIGMGNIGPAGMGMEGIGFGINKMGGMEGPFGGGMENMGRFGSGMNMGRINEILSNALKRGEIIAKQGGGGGGGSVPGIERMGPGIDRLGGAGMERMGAGLGHGMDRVGSEIERMGLVMDRMGSVERMGSGIERMGPLGLDHMASSIERMGQTMERIGSGVERMGAGMGFGLERMAAPIDRVGQTIERMGSGVERMGPAIERMGLSMERMVPAGMGAGLERMGPVMDRMATGLERMGANNLERMGLERMGANSLERMGLERMGANSLERMGPAMGPALGAGIERMGLAMGGGGGASFDRAIEMERGNFGGSFAGSFGGAGGHAPGVARKACQIFVRNLPFDFTWKMLKDKFNECGHVLYADIKMENGKSKGCGVVKFESPEVAERACRMMNGMKLSGREIDVRIDRNA
